{"source": "PubChem BioAssay AID212", "about": "(DTP/NCI, 2004)", "test_system": "BDF1 mice, colon carcinoma 38 sc, T/C %", "assay": "NCI In Vivo Anticancer Drug Screen. Data for tumor model Colon Carcinoma 38 (subcutaneous) in B6D2F1 (BDF1) mice", "experimental": "The antitumor activity of compounds was measured in mice bearing transplantable tumors. Survival or tumor size were measured and the results are expressed as the measurement made in the treated group (T) divided by the measurement made in the vehicle treated control group (C). The tumor model used in this assay is Colon Carcinoma 38 (subcutaneous) in B6D2F1 (BDF1) mice", "note": "The list does not hold the whole screen: it covers a few groups of compounds. Other doses and runs of a compound may be missing. T/C is the treated group as % of the vehicle group. Schedules are NCI's codes, read here as Q, the interval in days (D) or hours (H), X, the number of doses. Some entries show no survivor count and are marked so; the dose need not have been tolerated. Where survival is the endpoint, the PubChem record calls one and a half times the control and up active, and a quarter to a half above the control has no call in these data; cut-offs in other NCI protocols can differ."}
{"smiles": "CC(=O)OCC12CC(O)C(C)=CC1OC1C(O)C(OC(C)=O)C2(C)C12CO2", "note": "(configuration not stated)", "values": [{"measurement": "T/C", "setting": "T/C endpoint: median tumor weight (est.), dose: 0.31 mg/kg/injection, schedule: Q07DX002 (ip), vehicle: saline, evaluated on day 20, higher T/C = larger tumour", "value": "115 % of control [survivor count not shown]"}, {"measurement": "T/C", "setting": "T/C endpoint: median tumor weight (est.), dose: 0.62 mg/kg/injection, schedule: Q07DX002 (ip), vehicle: saline, evaluated on day 20, higher T/C = larger tumour", "value": "74 % of control [survivor count not shown]"}, {"measurement": "T/C", "setting": "T/C endpoint: median tumor weight (est.), dose: 2.5 mg/kg/injection, schedule: Q07DX002 (ip), vehicle: saline, evaluated on day 20, higher T/C = larger tumour", "value": "178 % of control [survivor count not shown]"}, {"measurement": "T/C", "setting": "T/C endpoint: median tumor weight (est.), dose: 5.0 mg/kg/injection, schedule: Q07DX002 (ip), vehicle: saline, evaluated on day 20, higher T/C = larger tumour", "value": "52 % of control [survivor count not shown]"}, {"measurement": "T/C", "setting": "T/C endpoint: median tumor weight (est.), dose: 10.0 mg/kg/injection, schedule: Q07DX002 (ip), vehicle: saline, evaluated on day 20, higher T/C = larger tumour", "value": "85 % of control [survivor count not shown]"}]}
{"smiles": "CC(=O)OC[C@]12C[C@H](OC(=O)CC(C)C)C(C)=C[C@H]1OC1[C@H](O)[C@@H](OC(C)=O)[C@@]2(C)[C@@]12CO2", "values": [{"measurement": "T/C", "setting": "T/C endpoint: median survival time, dose: 0.75 mg/kg/injection, schedule: Q07DX003 (sc), vehicle: saline + alcohol, higher T/C = longer survival", "value": "137 % of control [survivor count not shown]"}, {"measurement": "T/C", "setting": "T/C endpoint: median survival time, dose: 1.5 mg/kg/injection, schedule: Q07DX003 (sc), vehicle: saline + alcohol, higher T/C = longer survival", "value": "165 % of control [survivor count not shown]"}]}
{"smiles": "CC1=C[C@H]2O[C@@H]3C[C@H]4OC(=O)/C=C\\C=C\\C(C(C)O)OCC[C@@H](C)[C@H](O)C(=O)OC[C@@]2(CC1)[C@]4(C)[C@]31CO1", "note": "(some centres not stated)", "values": [{"measurement": "T/C", "setting": "T/C endpoint: median tumor weight (est.), dose: 0.05 mg/kg/injection, schedule: Q07DX002 (ip), vehicle: Klucel (hydroxypropylcellulose) (HPC), evaluated on day 20, higher T/C = larger tumour", "value": "150 % of control [survivor count not shown]"}, {"measurement": "T/C", "setting": "T/C endpoint: median tumor weight (est.), dose: 0.09 mg/kg/injection, schedule: Q07DX002 (ip), vehicle: Klucel (hydroxypropylcellulose) (HPC), evaluated on day 20, higher T/C = larger tumour", "value": "95 % of control [survivor count not shown]"}]}
{"smiles": "CC1=C[C@H]2O[C@@H]3[C@H](O)[C@@H](O)[C@](C)(C2(COC(=O)CCl)CC1)[C@@]31CO1", "note": "(some centres not stated)", "values": [{"measurement": "T/C", "setting": "T/C endpoint: median tumor weight (est.), dose: 1.5 mg/kg/injection, schedule: Q07DX003 (ip), vehicle: saline with Tween-80, evaluated on day 20, higher T/C = larger tumour", "value": "140 % of control [survivor count not shown]"}, {"measurement": "T/C", "setting": "T/C endpoint: median tumor weight (est.), dose: 3.0 mg/kg/injection, schedule: Q07DX003 (ip), vehicle: saline with Tween-80, evaluated on day 20, higher T/C = larger tumour", "value": "120 % of control [survivor count not shown]"}]}
{"smiles": "C=C(C)C(=O)OCC12CCC(C)=CC1OC1C(=O)C(OC(=O)C(=C)C)C2(C)C12CO2", "note": "(configuration not stated)", "values": [{"measurement": "T/C", "setting": "T/C endpoint: median tumor weight (est.), dose: 0.5 mg/kg/injection, schedule: Q07DX002 (ip), vehicle: distilled water + Tween-80, evaluated on day 20, higher T/C = larger tumour", "value": "53 % of control [survivor count not shown]"}, {"measurement": "T/C", "setting": "T/C endpoint: median tumor weight (est.), dose: 1.0 mg/kg/injection, schedule: Q07DX002 (ip), vehicle: distilled water + Tween-80, evaluated on day 20, higher T/C = larger tumour", "value": "23 % of control [survivor count not shown]"}, {"measurement": "T/C", "setting": "T/C endpoint: median tumor weight (est.), dose: 2.0 mg/kg/injection, schedule: Q07DX002 (ip), vehicle: distilled water + Tween-80, evaluated on day 20, higher T/C = larger tumour", "value": "33 % of control [survivor count not shown]"}, {"measurement": "T/C", "setting": "T/C endpoint: median tumor weight (est.), dose: 4.0 mg/kg/injection, schedule: Q07DX002 (ip), vehicle: distilled water + Tween-80, evaluated on day 20, higher T/C = larger tumour", "value": "65 % of control [survivor count not shown]"}]}
{"smiles": "CC1=C[C@H]2O[C@@H]3C[C@H]4OC(=O)/C=C\\C=C\\C5OC(C/C(C)=C\\C(=O)OCC2(CC1)[C@]4(C)[C@]31CO1)OC5C", "note": "(some centres not stated)", "values": [{"measurement": "T/C", "setting": "T/C endpoint: median tumor weight (est.), dose: 1.56 mg/kg/injection, schedule: Q07DX002 (ip), vehicle: saline + Tween-80 + alcohol, evaluated on day 20, higher T/C = larger tumour", "value": "81 % of control [survivor count not shown]"}, {"measurement": "T/C", "setting": "T/C endpoint: median tumor weight (est.), dose: 3.12 mg/kg/injection, schedule: Q07DX002 (ip), vehicle: saline + Tween-80 + alcohol, evaluated on day 20, higher T/C = larger tumour", "value": "121 % of control [survivor count not shown]"}, {"measurement": "T/C", "setting": "T/C endpoint: median tumor weight (est.), dose: 6.25 mg/kg/injection, schedule: Q07DX002 (ip), vehicle: saline + Tween-80 + alcohol, evaluated on day 20, higher T/C = larger tumour", "value": "109 % of control [survivor count not shown]"}, {"measurement": "T/C", "setting": "T/C endpoint: median tumor weight (est.), dose: 12.5 mg/kg/injection, schedule: Q07DX002 (ip), vehicle: saline + Tween-80 + alcohol, evaluated on day 20, higher T/C = larger tumour", "value": "68 % of control [survivor count not shown]"}, {"measurement": "T/C", "setting": "T/C endpoint: median tumor weight (est.), dose: 25.0 mg/kg/injection, schedule: Q07DX002 (ip), vehicle: saline + Tween-80 + alcohol, evaluated on day 20, higher T/C = larger tumour", "value": "71 % of control [survivor count not shown]"}, {"measurement": "T/C", "setting": "T/C endpoint: median tumor weight (est.), dose: 50.0 mg/kg/injection, schedule: Q07DX002 (ip), vehicle: saline + Tween-80 + alcohol, evaluated on day 20, higher T/C = larger tumour", "value": "66 % of control [survivor count not shown]"}]}
{"smiles": "CC1=C[C@H]2O[C@@H]3[C@H](OC(=O)CCl)[C@@H](O)[C@](C)(C2(COC(=O)CCl)CC1)[C@@]31CO1", "note": "(some centres not stated)", "values": [{"measurement": "T/C", "setting": "T/C endpoint: median tumor weight (est.), dose: 2.0 mg/kg/injection, schedule: Q07DX003 (ip), vehicle: saline with Tween-80, evaluated on day 20, higher T/C = larger tumour", "value": "133 % of control [survivor count not shown]"}, {"measurement": "T/C", "setting": "T/C endpoint: median tumor weight (est.), dose: 4.0 mg/kg/injection, schedule: Q07DX003 (ip), vehicle: saline with Tween-80, evaluated on day 20, higher T/C = larger tumour", "value": "94 % of control [survivor count not shown]"}]}
{"smiles": "C[C@@H](O)[C@H]1/C=C/C=C\\C(=O)O[C@@H]2C[C@H]3O[C@@H]4[C@@H]5OC5(C)CCC4(COC(=O)[C@H]4O[C@]4(C)[C@@H](O)CO1)[C@]2(C)[C@]31CO1", "note": "(some centres not stated)", "values": [{"measurement": "T/C", "setting": "T/C endpoint: median tumor weight (est.), dose: 2.5 mg/kg/injection, schedule: Q07DX002 (ip), vehicle: saline + alcohol, evaluated on day 20, higher T/C = larger tumour", "value": "102 % of control [survivor count not shown]"}, {"measurement": "T/C", "setting": "T/C endpoint: median tumor weight (est.), dose: 10.0 mg/kg/injection, schedule: Q07DX002 (ip), vehicle: saline + alcohol, evaluated on day 20, higher T/C = larger tumour", "value": "99 % of control [survivor count not shown]"}, {"measurement": "T/C", "setting": "T/C endpoint: median tumor weight (est.), dose: 40.0 mg/kg/injection, schedule: Q07DX002 (ip), vehicle: saline + alcohol, evaluated on day 20, higher T/C = larger tumour", "value": "105 % of control [survivor count not shown]"}]}
{"smiles": "CC1=C[C@H]2O[C@@H]3[C@H](OC(=O)CCl)[C@@H](O)[C@](C)(C2(CO)CC1)[C@@]31CO1", "note": "(some centres not stated)", "values": [{"measurement": "T/C", "setting": "T/C endpoint: median tumor weight (est.), dose: 12.0 mg/kg/injection, schedule: Q07DX003 (ip), vehicle: saline with Tween-80, evaluated on day 20, higher T/C = larger tumour", "value": "54 % of control [survivor count not shown]"}, {"measurement": "T/C", "setting": "T/C endpoint: median tumor weight (est.), dose: 24.0 mg/kg/injection, schedule: Q07DX003 (ip), vehicle: saline with Tween-80, evaluated on day 20, higher T/C = larger tumour", "value": "55 % of control [survivor count not shown]"}]}
{"smiles": "CC(=O)OC[C@]12CC(=O)C(C)=C[C@H]1O[C@@H]1C(=O)[C@@H](OC(C)=O)[C@@]2(C)[C@@]12CO2", "values": [{"measurement": "T/C", "setting": "T/C endpoint: median tumor weight (est.), dose: 0.5 mg/kg/injection, schedule: Q07DX002 (ip), vehicle: water, evaluated on day 20, higher T/C = larger tumour", "value": "116 % of control [survivor count not shown]"}, {"measurement": "T/C", "setting": "T/C endpoint: median tumor weight (est.), dose: 1.0 mg/kg/injection, schedule: Q07DX002 (ip), vehicle: water, evaluated on day 20, higher T/C = larger tumour", "value": "90 % of control [survivor count not shown]"}, {"measurement": "T/C", "setting": "T/C endpoint: median tumor weight (est.), dose: 2.0 mg/kg/injection, schedule: Q07DX002 (ip), vehicle: water, evaluated on day 20, higher T/C = larger tumour", "value": "73 % of control [survivor count not shown]"}, {"measurement": "T/C", "setting": "T/C endpoint: median tumor weight (est.), dose: 4.0 mg/kg/injection, schedule: Q07DX002 (ip), vehicle: water, evaluated on day 20, higher T/C = larger tumour", "value": "92 % of control [survivor count not shown]"}]}
